The source of these data is article PMC5227109.

In assay [1] the target is T1, S. cerevisiae Smc1, recombinant (the Smc1 chain of m1) (S. cerevisiae), P32908.
T1 chain: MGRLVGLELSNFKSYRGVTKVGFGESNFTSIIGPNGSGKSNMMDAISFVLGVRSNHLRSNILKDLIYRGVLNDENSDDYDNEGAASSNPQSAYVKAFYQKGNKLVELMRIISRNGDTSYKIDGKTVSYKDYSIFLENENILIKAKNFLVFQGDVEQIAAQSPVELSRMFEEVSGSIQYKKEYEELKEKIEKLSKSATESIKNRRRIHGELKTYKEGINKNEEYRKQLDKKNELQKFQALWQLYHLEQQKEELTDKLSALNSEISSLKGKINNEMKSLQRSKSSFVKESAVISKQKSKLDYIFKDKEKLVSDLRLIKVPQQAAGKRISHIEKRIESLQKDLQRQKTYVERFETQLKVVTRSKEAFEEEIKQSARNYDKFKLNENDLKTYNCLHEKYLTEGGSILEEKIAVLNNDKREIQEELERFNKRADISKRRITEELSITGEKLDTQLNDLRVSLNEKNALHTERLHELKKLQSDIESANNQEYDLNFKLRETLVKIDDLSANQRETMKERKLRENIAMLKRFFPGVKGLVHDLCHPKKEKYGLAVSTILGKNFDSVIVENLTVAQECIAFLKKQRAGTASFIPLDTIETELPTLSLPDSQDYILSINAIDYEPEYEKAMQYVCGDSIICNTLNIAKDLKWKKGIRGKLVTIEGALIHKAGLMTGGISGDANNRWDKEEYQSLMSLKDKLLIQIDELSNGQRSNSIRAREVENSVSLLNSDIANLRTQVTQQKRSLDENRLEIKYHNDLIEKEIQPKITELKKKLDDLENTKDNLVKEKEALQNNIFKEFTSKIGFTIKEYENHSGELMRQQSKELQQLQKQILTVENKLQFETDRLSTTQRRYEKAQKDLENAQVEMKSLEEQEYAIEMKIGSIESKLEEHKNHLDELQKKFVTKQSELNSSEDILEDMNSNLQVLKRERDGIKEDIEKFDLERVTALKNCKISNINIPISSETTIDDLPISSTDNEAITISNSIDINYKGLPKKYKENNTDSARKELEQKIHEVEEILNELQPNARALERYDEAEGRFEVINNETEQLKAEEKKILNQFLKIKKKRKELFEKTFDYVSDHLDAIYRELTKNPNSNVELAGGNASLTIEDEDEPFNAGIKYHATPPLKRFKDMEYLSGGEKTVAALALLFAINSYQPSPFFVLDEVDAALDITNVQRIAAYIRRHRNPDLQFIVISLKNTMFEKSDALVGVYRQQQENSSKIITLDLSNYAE
Description: cross-linking; XL-MS: 0.4 μM cohesin, 0.8 μM full-length Scc2–Scc4 and 0.8 μM 56-bp dsDNA in 20 mM HEPES pH 7.5, 50 mM NaCl, 5 mM DTT, 5 mM MgCl2, 1 mM ATP, 10% glycerol; 5–8 mM d0/d12 DSS, 28 °C 40 min; xQuest/xProphet, FDR 1%; both purified. The settings on record: remark: other sources report otherwise.

Assay [2] has as its target T2, S. cerevisiae Scc2, recombinant (the Scc2 chain of m2) (S. cerevisiae) (UniProt Q04002).
T2 sequence: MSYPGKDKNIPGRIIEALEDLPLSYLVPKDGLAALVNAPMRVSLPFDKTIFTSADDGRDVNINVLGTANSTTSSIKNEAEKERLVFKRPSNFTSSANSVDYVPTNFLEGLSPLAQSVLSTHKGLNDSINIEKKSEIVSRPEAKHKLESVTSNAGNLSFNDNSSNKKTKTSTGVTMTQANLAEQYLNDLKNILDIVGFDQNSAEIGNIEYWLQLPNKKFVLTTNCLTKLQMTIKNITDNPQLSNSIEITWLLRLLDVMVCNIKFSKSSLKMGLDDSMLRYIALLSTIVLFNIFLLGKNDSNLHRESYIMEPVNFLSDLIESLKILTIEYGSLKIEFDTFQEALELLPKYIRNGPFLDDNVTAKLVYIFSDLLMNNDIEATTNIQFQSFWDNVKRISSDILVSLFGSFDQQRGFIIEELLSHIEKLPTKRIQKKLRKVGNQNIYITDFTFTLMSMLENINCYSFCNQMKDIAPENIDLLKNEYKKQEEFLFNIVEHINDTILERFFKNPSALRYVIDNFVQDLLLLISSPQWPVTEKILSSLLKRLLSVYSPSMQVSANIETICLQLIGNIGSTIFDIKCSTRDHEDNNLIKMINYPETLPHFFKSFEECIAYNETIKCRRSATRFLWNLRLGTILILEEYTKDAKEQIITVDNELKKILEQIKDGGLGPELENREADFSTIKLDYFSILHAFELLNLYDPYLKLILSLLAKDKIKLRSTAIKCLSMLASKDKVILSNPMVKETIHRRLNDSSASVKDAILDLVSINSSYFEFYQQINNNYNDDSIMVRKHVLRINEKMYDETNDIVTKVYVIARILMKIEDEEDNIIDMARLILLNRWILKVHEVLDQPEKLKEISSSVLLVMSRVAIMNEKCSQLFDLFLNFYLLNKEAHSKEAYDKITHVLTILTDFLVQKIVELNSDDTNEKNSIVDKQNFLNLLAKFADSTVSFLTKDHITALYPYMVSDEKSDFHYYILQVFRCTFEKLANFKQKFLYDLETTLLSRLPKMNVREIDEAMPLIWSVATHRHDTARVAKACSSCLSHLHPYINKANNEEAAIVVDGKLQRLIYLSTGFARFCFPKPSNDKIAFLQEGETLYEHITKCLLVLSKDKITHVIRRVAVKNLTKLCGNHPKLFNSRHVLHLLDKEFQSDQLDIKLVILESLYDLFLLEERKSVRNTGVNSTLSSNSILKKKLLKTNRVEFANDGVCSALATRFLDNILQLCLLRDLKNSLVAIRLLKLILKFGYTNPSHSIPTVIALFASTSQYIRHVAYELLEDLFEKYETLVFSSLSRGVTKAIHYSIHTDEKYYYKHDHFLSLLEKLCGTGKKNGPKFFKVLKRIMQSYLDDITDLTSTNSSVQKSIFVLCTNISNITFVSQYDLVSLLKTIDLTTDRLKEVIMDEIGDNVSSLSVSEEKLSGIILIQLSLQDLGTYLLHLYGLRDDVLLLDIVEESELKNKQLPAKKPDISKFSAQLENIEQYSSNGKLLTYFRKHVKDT
Description: co-purification; Scc2 (C-terminal double Strep-tag II) and Scc4 co-expressed in High 5 cells; Strep-Tactin, Poros HQ50 anion exchange, Superdex 200 SEC; final buffer 10 mM imidazole pH 7, 300 mM NaCl, 0.5 mM TCEP.

Assay [3] has as its target T2, S. cerevisiae Scc2, recombinant (the Scc2 chain of m2) (S. cerevisiae). Description: cross-linking; XL-MS: 0.4 μM cohesin, 0.8 μM full-length Scc2–Scc4 and 0.8 μM 56-bp dsDNA in 20 mM HEPES pH 7.5, 50 mM NaCl, 5 mM DTT, 5 mM MgCl2, 1 mM ATP, 10% glycerol; 5–8 mM d0/d12 DSS, 28 °C 40 min; xQuest/xProphet, FDR 1%; both purified.

These are yes or no findings as the source states them, for the method shown. Some entries that bind do so weakly or less than the wild type.

B1: S. cerevisiae Scc2, recombinant (the Scc2 chain of m2), Q04002 1-1493 (protein)
chain: T2 sequence
As for B1, the binding entry in assay [1] is “binds”.

B2: S. cerevisiae Scc4, recombinant (the Scc4 chain of m2) (protein, UniProt P40090 1-624)
chain: MENLGDKLSISQVYHLAQEYRDHAYSIANKIGSEEGLKQYYGLMNMSIQMFQLLKTKCTLSVLEDSKVTFEMVELLIQETYNFDLAELYISSLKERLQTHQSDTDLVEEIMRCEFLLLHDLPLMRDSKFHYKIALRNCNELVQYMVNLQDELYQNWASVFQYVGVMLCIKLKQHRRVKTSFHGLLSQCREKSQWKWFLNLCYVNYLLNERFPIPEDALQELRSTELHTVGPELYAWKLALEMVIQLCKDGNITDHLNEFKNFFDTNKQSLVTNEGKGCVIKIMPRIALKVELPMIFHYKELKNILLLLQSVSYIVNCYDEKGNFSRKFLPKVYSTTQKLIKNIAAGGVSMNELDSRIQTYKSILEFCEFYKVWEQTLLKGAVVTTESPKLGPSPGYVRLLQAMKVQFEGGGAVEEYTRLAQSGGTSSEVKMISLLNCYTVQAARVSRCSGDKQGELVEQCNKVWLQVEKLLQETDLQFNPIWECTVTILWLFSHFEPFSWNPLPCSDKQRAEYVSKLREFYSSNKFVAGEAVADNRFKLKKALLLQILVNYLGGRMLEHDLGEIYAISAKCFDMCRQQGGMRKVQYVIGIWHLMNCTVAMRGKDVALTNAKLEALVKQITSVKQ
As to B2, the binding entry in assay [2] and in assay [3] was “binds” each time.
